According to patent publication US20250282714A1, “COMPOSITIONS FOR AND METHODS OF MODULATING RNA STABILITY” (Duke University, priority 2022, published 2025):

Tested on: MALAT1 triple helix
Experiment: Isothermal titration calorimetry (ITC)
Type: binding, human
Details: 25° C., Tris buffer pH 7.4

Compound	-TDS	DG	DH
N=C(NC1CCN(Cc2ccccc2)CC1)c1ccc(/N=N/Nc2ccc(C(=N)NC3CCN(Cc4ccccc4)CC3)cc2)cc1 [DMZ-P8]	-0.762 kcal/mol	-1.63 kcal/mol	-0.87 kcal/mol
N=C(NCCC1CCN(Cc2ccccc2)CC1)c1ccc(/N=N/Nc2ccc(C(=N)NCCC3CCN(Cc4ccccc4)CC3)cc2)cc1 [DMZ-P13]	-0.908 kcal/mol	-1.56 kcal/mol	-0.65 kcal/mol
N=C(N)c1ccc(/N=N/Nc2ccc(C(=N)N)cc2)cc1 [DMZ-P0, diminazene, reference compound]	0.409 kcal/mol	-1.46 kcal/mol	-1.87 kcal/mol
N=C(NCc1ccc(Cl)cc1)c1ccc(/N=N/Nc2ccc(C(=N)NCc3ccc(Cl)cc3)cc2)cc1 [DMZ-P5]	0.167 kcal/mol	-1.45 kcal/mol	-1.62 kcal/mol
N=C(NCCN1CCNCC1)c1ccc(/N=N/Nc2ccc(C(=N)NCCN3CCNCC3)cc2)cc1 [DMZ-P9]	-1.13 kcal/mol	-1.5 kcal/mol	-0.366 kcal/mol
CN(C)CCCNC(=N)c1ccc(/N=N/Nc2ccc(C(=N)NCCCN(C)C)cc2)cc1 [DMZ-P1]	-0.16 kcal/mol		
CN(C)CCCNC(=N)c1cccc(/N=N/Nc2cccc(C(=N)NCCCN(C)C)c2)c1 [DMZ-M1]	-0.115 kcal/mol	-1.73 kcal/mol	-1.61 kcal/mol
CN1CCN(CCNC(=N)c2cccc(/N=N/Nc3cccc(C(=N)NCCN4CCN(C)CC4)c3)c2)CC1 [DMZ-M10]	-1.15 kcal/mol	-1.47 kcal/mol	-0.318 kcal/mol
